Results: publication PMC5675621
These are yes or no findings as the source states them, for the method shown. Binding seen in cells or lysates may run through a third protein. A result given as binding can be weak or reduced; the word gives no strength.

T1: NAB2 (NGFI-A Binding Protein 2) (UniProt Q15742)
T1 sequence: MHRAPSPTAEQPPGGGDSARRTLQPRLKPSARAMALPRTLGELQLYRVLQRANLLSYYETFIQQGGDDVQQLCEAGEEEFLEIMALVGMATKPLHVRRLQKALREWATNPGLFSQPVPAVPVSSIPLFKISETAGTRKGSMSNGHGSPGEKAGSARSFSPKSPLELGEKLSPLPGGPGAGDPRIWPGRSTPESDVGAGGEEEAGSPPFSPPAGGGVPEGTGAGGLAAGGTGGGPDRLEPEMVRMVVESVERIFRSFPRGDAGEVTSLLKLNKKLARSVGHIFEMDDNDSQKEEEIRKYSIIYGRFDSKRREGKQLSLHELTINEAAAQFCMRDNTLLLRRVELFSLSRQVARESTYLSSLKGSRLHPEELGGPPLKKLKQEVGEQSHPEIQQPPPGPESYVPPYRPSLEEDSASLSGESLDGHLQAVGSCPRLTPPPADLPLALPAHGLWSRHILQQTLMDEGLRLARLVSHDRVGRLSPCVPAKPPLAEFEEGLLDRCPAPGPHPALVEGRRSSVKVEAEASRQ


Legend:
[1] = molecular target: T1, NAB2 (NGFI-A Binding Protein 2); test: co-IP; nuclear extracts of 293T/17 cells 48 h after transfection with WT1 or WT1 plus NAB2 (Nuclear Complex Co-IP kit); IP with anti-WT1 (C-19) or anti-NAB2 (1C4) overnight at 4°C in 1 × High IP buffer, Protein G agarose column, immunoblot
[2] = molecular target: Wilms' tumor gene 1 protein, WT1+17AA/-KTS isoform (UniProt P19544); test: as above

binding [1] | binding [2] | Molecule
binds | – | Wilms' tumor gene 1 protein, WT1+17AA/-KTS isoform (from UniProt P19544-4)
– | binds | NAB2 (NGFI-A Binding Protein 2) (protein, UniProt Q15742-1 1-525) MHRAPSPTAEQPPGGGDSARRTLQPRLKPSARAMALPRTLGELQLYRVLQRANLLSYYETFIQQGGDDVQQLCEAGEEEFLEIMALVGMATKPLHVRRLQKALREWATNPGLFSQPVPAVPVSSIPLFKISETAGTRKGSMSNGHGSPGEKAGSARSFSPKSPLELGEKLSPLPGGPGAGDPRIWPGRSTPESDVGAGGEEEAGSPPFSPPAGGGVPEGTGAGGLAAGGTGGGPDRLEPEMVRMVVESVERIFRSFPRGDAGEVTSLLKLNKKLARSVGHIFEMDDNDSQKEEEIRKYSIIYGRFDSKRREGKQLSLHELTINEAAAQFCMRDNTLLLRRVELFSLSRQVARESTYLSSLKGSRLHPEELGGPPLKKLKQEVGEQSHPEIQQPPPGPESYVPPYRPSLEEDSASLSGESLDGHLQAVGSCPRLTPPPADLPLALPAHGLWSRHILQQTLMDEGLRLARLVSHDRVGRLSPCVPAKPPLAEFEEGLLDRCPAPGPHPALVEGRRSSVKVEAEASRQ
